Measured values taken from patent EP4631957A1, “PEPTIDE FOR CARTILAGE REGENERATION, AND USES THEREOF” (Caregen Co., Ltd., priority 2022, dated 2024).
Not every detail of the peptide structures is certain; ends, links or a residue may be inferred. Where a SMILES comes first, the peptide text is derived from it. Where no end group is shown, it is not given here.

Key:
Assay type in all cases: cell-based
[1] = system: glycosaminoglycan; test: Glycosaminoglycan production, Alcian blue staining of human-derived chondrocytes; details: C28/I2 cells, peptide at different concentrations, 7 days, FIG. 3 and FIG. 4
[2] = system: COL2A1; test: mRNA expression of ECM components by PCR in human-derived chondrocytes; details: C28/I2 cells, peptide at different concentrations, after 3 and 7 days; FIG. 5 and FIG. 6
[3] = system: COMP; test: as above; details: C28/I2 cells, peptide at different concentrations, after 3 and 7 days; FIG. 5 and FIG. 6
[4] = system: COL11A1; test: as above; details: C28/I2 cells, peptide at different concentrations, after 3 and 7 days; FIG. 5 and FIG. 6
[5] = system: ACAN; test: as above; details: C28/I2 cells, peptide at different concentrations, after 3 and 7 days; FIG. 5 and FIG. 6
[6] = system: SOX9; test: mRNA expression of ECM regulatory factor SOX9 by PCR in human-derived chondrocytes; details: C28/I2 cells, peptide at different concentrations, after 3 days; FIG. 7 and FIG. 8
[7] = system: SOX5; test: Protein expression of ECM regulatory factors by Western blot in human-derived chondrocytes; details: C28/I2 cells, peptide at different concentrations, after 7 days, FIG. 9
[8] = system: SOX6; test: as above; details: C28/I2 cells, peptide at different concentrations, after 7 days, FIG. 9
[9] = system: SOX9; test: as above; details: C28/I2 cells, peptide at different concentrations, after 7 days, FIG. 9 and FIG. 10

Molecule	production of glycosaminoglycan [1]	expression of mRNA of COL2A1 [2]	expression of mRNA of COMP [3]	expression of mRNA of COL11A1 [4]	expression of mRNA of ACAN [5]	mRNA expression of SOX9 [6]	expression of SOX5 protein [7]	expression of SOX6 protein [8]	expression of SOX9 protein [9]
N=C(N)NCCC[C@H](N)C(=O)N[C@@H](Cc1ccc(O)cc1)C(=O)N[C@@H](Cc1ccccc1)C(=O)O [Peptide-1, Arg(R)-Tyr(Y)-Phe(F)] (H-Arg-Tyr-Phe-OH)	promoted	increased	increased	increased	increased	induced an increase	increased	increased	increased
TAVRVG [Peptide-2]	promoted	increased	increased	increased	increased	induced an increase	–	–	increased
